Measurements reported in PubChem BioAssay AID1259259 (Sanger Institute, 2017).
This is an unselected part of 794 reagents tested. 9 of them (1.1%) count as active. 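Calls rest on knock-down alone, not drug synergy; viability values seem capped at 1.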 Further read-outs or replicates are left out here. The record does not give: the amount of reagent, the time to read-out.

- Assay: 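Synthetic lethal kinase partners of anchor drugs in colorectal cancer cells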 (primary screen)
- Cell system: SW1463 human colorectal cancer cells
- Reagents: siRNA pool against human genes
- Challenge: DMSO vehicle, or one anchor drug: BYL719 at 1 µM, cetuximab at 5 µg/ml, or trametinib at 10 nM
- Measurement: 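Viability as fraction of control pool 2 (non-targeting), replicate mean; knock-down robust z-score without any drug; synergy score averaged for each anchor drug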
- Scale: robust z-score, knock-down alone: higher = more viable cells after knock-down; viability, knock-down alone: higher = more viable cells
- Rule for the call: 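Knock-down called essential when its robust z-score without drug falls below -3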
- Meaning of the calls: active = essential: viability loss from knock-down alone; inactive = no change from knock-down alone

| gene knocked down | PubChem SID | robust z-score, knock-down alone | viability, knock-down alone (fraction of control) | Call |
| --- | --- | --- | --- | --- |
| MAPK9 (mitogen-activated protein kinase 9) | SID56478662 | 1.13 | 1 | inactive |
| MAPK7 (mitogen-activated protein kinase 7) | SID56478666 | 1.13 | 1 | inactive |
| FN3KRP (fructosamine 3 kinase related protein) | SID56479164 | -0.00147 | 0.928 | inactive |
| MARK4 (microtubule affinity regulating kinase 4) | SID56479022 | 0.945 | 0.988 | inactive |
| VRK1 (VRK serine/threonine kinase 1) | SID152147475 | -0.511 | 0.895 | inactive |
| MKNK2 (MAPK interacting serine/threonine kinase 2) | SID152150791 | 0.282 | 0.946 | inactive |
| OBSCN | SID56479016 | 0.209 | 0.941 | inactive |
| ACVR1C (activin A receptor type 1C) | SID135620908 | -0.264 | 0.911 | inactive |
| ATRX (ATRX chromatin remodeler) | SID152156576 | 0.602 | 0.966 | inactive |
| PDGFRL (platelet derived growth factor receptor like) | SID134315029 | 0.333 | 0.949 | inactive |
| AK2 (adenylate kinase 2) | SID56479162 | -0.357 | 0.905 | inactive |
| PCK1 (phosphoenolpyruvate carboxykinase 1) | SID135621257 | -0.0256 | 0.926 | inactive |
| NME5 (NME/NM23 family member 5) | SID56479119 | 0.91 | 0.986 | inactive |
| MAPK6 (mitogen-activated protein kinase 6) | SID56478707 | -0.419 | 0.901 | inactive |
| PRKAR2A | SID152153424 | 0.438 | 0.956 | inactive |
| DYRK2 (dual specificity tyrosine phosphorylation regulated kinase 2) | SID152156553 | 1.13 | 1 | inactive |
| TSKS (testis specific serine kinase substrate) | SID56479267 | 0.825 | 0.981 | inactive |
| STK25 (serine/threonine kinase 25) | SID135620899 | 0.072 | 0.932 | inactive |
| MAST4 | SID135625002 | 0.577 | 0.965 | inactive |
| MAP3K7 (mitogen-activated protein kinase kinase kinase 7) | SID135620737 | 1.13 | 1 | inactive |
| CDKN1A (cyclin dependent kinase inhibitor 1A) | SID56478654 | -0.845 | 0.873 | inactive |
| GUCY2D (guanylate cyclase 2D, retinal) | SID135620972 | -2.84 | 0.746 | inactive |
| PI4KB (phosphatidylinositol 4-kinase beta) | SID135621252 | 1.13 | 1 | inactive |
| TAOK3 (TAO kinase 3) | SID152152167 | -0.136 | 0.919 | inactive |
| HIPK1 (homeodomain interacting protein kinase 1) | SID135620891 | 1.13 | 1 | inactive |
| MLKL (mixed lineage kinase domain like pseudokinase) | SID56479010 | 0.56 | 0.964 | inactive |
| AGK (acylglycerol kinase) | SID56479172 | 0.284 | 0.946 | inactive |
| PIK3C2B | SID56479135 | 0.306 | 0.947 | inactive |
| MAGI2 | SID135622325 | 0.306 | 0.947 | inactive |
| AMHR2 (anti-Mullerian hormone receptor type 2) | SID56478996 | 1.13 | 1 | inactive |
| TTK (TTK protein kinase) | SID56478775 | 0.776 | 0.978 | inactive |
| DAPK2 (death associated protein kinase 2) | SID152156399 | 1.03 | 0.994 | inactive |
| TAF1 (TATA-box binding protein associated factor 1) | SID56478970 | 0.208 | 0.941 | inactive |
| SIK1 (salt inducible kinase 1) | SID152146842 | -0.812 | 0.875 | inactive |

Copied from the list.
Value for FN3KRP (fructosamine 3 kinase related protein) [SID56479164] in “viability, knock-down alone (fraction of control)”: 0.928
Under “viability, knock-down alone (fraction of control)”, MAPK9 (mitogen-activated protein kinase 9) [SID56478662] reads 1
